From article doi:10.1101/2021.01.08.425872
These are yes or no findings as the source states them, for the method shown. For part of these data: Binding seen in cells or lysates may run through a third protein. Some binding calls cover weakened binding; strength is not graded here. For part of these data: Sequences can lack the tags named with a protein. One block for each binder: values may come before it.

Protein sequences, listed by entry. Tags and fused reporters are not part of them. Lines headed by an entry give the natural chain unless they say otherwise; changes in a name come on top. Chains listed by the source or under a name are the forms on record and can include a tag or linker.
UniProt Q38919: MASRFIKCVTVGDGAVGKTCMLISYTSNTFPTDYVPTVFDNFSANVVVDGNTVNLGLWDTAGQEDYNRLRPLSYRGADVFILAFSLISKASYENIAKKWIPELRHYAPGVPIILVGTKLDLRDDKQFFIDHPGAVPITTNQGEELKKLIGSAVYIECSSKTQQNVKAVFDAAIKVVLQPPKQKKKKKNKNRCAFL
UniProt Q38937: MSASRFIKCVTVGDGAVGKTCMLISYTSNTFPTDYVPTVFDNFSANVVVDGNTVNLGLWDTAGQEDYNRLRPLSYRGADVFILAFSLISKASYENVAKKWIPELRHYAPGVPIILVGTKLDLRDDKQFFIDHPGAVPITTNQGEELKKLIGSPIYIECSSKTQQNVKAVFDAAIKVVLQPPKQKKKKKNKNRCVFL
UniProt O82480: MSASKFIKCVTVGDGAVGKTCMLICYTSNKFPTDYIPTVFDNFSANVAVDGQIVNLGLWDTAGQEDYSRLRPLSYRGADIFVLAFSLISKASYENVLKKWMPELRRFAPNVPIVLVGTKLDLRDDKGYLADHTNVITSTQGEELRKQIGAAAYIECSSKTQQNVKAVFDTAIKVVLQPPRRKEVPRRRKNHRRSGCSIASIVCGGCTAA
YN-rop9^CA (O82480, form named): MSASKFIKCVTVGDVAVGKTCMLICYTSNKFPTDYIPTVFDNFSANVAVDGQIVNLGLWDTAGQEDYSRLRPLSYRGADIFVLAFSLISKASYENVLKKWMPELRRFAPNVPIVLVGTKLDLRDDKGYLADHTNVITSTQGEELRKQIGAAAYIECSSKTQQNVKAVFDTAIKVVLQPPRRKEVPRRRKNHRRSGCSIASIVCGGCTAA
UniProt O82481: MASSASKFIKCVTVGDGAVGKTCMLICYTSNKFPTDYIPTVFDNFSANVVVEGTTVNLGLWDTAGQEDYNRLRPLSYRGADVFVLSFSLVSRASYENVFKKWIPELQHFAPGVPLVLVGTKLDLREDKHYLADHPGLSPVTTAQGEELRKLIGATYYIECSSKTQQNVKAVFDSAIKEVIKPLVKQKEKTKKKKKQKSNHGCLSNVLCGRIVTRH

Experiments:
[1] = biological target: ROP2 in pGBT9.BS (pGBT ROP2) (UniProt Q38919); assay: two-hybrid
[2] = biological target: ROP4 in pGBT9.BS (pGBT ROP4) (UniProt Q38937); assay: two-hybrid
[3] = biological target: ROP9 in pGBT9.BS (pGBT ROP9) (UniProt O82480); assay: two-hybrid
[4] = biological target: ROP11 in pGBT9.BS (pGBT ROP11) (UniProt O82481); assay: two-hybrid
YN-rop9^CA = YN-rop9^CA (UniProt O82480); assay: split reporter
YN-ROP4 = YN-ROP4 (UniProt Q38937); assay: split reporter
YN-ROP9 = YN-ROP9 (UniProt O82480); assay: split reporter
YN-ROP2 = YN-ROP2 (UniProt Q38919); assay: split reporter
YN-ROP11 = YN-ROP11 (UniProt O82481); assay: split reporter

binding [1]: binds
binding [2]: binds
binding [3]: binds
binding [4]: binds
B1: ICR2 in pGAD GH (pGAD-ICR2) (protein, UniProt Q9ZQC5 1-583)
chain: MQTPKPRPGSLEVPQKKSPASTPKTARKLKTSESDPVSSPNTKIRTPKTQSPKVVADRRSPRTPVNEIQKKRTGKTPELASQISQLQEELKKAKEQLSASEALKKEAQDQAEETKQQLMEINASEDSRIDELRKLSQERDKAWQSELEAMQRQHAMDSAALSSTMNEVQKLKAQLSESENVENLRMELNETLSLVEKLRGELFDAKEGEAQAHEIVSGTEKQLEIANLTLEMLRSDGMKMSEACNSLTTELEQSKSEVRSLEQLVRQLEEEDEARGNANGDSSSVEELKEEINVARQEISQLKSAVEVTERRYHEEYIQSTLQIRTAYEQVDEVKSGYAQREAELGEELKKTKAERDSLHERLMDKEAKLRILVDENEILNSKIKEKEEVYLNLENSLNQNEPEDTGELKKLESDVMELRANLMDKEMELQSVMSQYESLRSEMETMQSEKNKAIDEALAKLGSLTEEADKSGKRAENATEQLGAAQVTNTELEAELRRLKVQCDQWRKAAEAAATMLSGGNNNNNSNGKYVERTGSLESPLRRRNVNMSPYMGETDDELSSPKKKNGSMLKKIGVLLKKSQK

binding (YN-rop9^CA): binds
binding (YN-ROP4): binds
binding (YN-ROP9): binds
binding (YN-ROP2): binds
binding (YN-ROP11): binds
B2: ICR2 fused at its carboxy terminus to the C-terminal half of YFP (ICR2-YC) (protein, UniProt Q9ZQC5 56-583)
chain: ADRRSPRTPVNEIQKKRTGKTPELASQISQLQEELKKAKEQLSASEALKKEAQDQAEETKQQLMEINASEDSRIDELRKLSQERDKAWQSELEAMQRQHAMDSAALSSTMNEVQKLKAQLSESENVENLRMELNETLSLVEKLRGELFDAKEGEAQAHEIVSGTEKQLEIANLTLEMLRSDGMKMSEACNSLTTELEQSKSEVRSLEQLVRQLEEEDEARGNANGDSSSVEELKEEINVARQEISQLKSAVEVTERRYHEEYIQSTLQIRTAYEQVDEVKSGYAQREAELGEELKKTKAERDSLHERLMDKEAKLRILVDENEILNSKIKEKEEVYLNLENSLNQNEPEDTGELKKLESDVMELRANLMDKEMELQSVMSQYESLRSEMETMQSEKNKAIDEALAKLGSLTEEADKSGKRAENATEQLGAAQVTNTELEAELRRLKVQCDQWRKAAEAAATMLSGGNNNNNSNGKYVERTGSLESPLRRRNVNMSPYMGETDDELSSPKKKNGSMLKKIGVLLKKSQK
